According to patent US20210269532A1:
Results are given in words; binding and its absence hold for the method and conditions named. Some entries that bind do so weakly or less than the wild type.

Biological target: chimeric mouse AXL ECD with human Ig1 domain, His-tagged (human; mouse) (UniProt Q00993)
Experiment: BLI (Octet), His-tagged chimeric protein captured on Anti-Penta-HIS sensors

binding: binds
B1: 22995 (antibody, human IgG1, kappa, L234A L235A, V domains shown)
VH: EVQLVESGGSLVQPGGSLRLSCAASGFTFSSSAMSWVRQAPGKGLEWVSTISGSDSSTYDADSVKGRSTISRDNSKNTLYLQMNSLRADDTAVYYCAKKGAYCSGTICYDPFDYWGQGTLVTVSS
VL: DIVLTQSPVLAVSLGQRATISCRASQSVSISSINLMHWYQQKPGQQPKLLIYRASNLASGIPARFSGSGSGTDFTLTIDPVQADDIAAYYCQQSRESPLTFGGGTKVEIKR
